These are yes or no findings as the source states them, for the method shown.
What was measured:
[1] = target: human Fc (Sino Biological Inc.) (human); assay: ELISA, antigen coated at 1 ug/ml, hybridoma culture supernatant
[2] = target: human Fc (Sino Biological Inc.) (human); assay: condition: culture supernatant, concentration not given; ELISA, antigen coated at 1 µg/ml, hybridoma culture supernatant, ALP anti-rat IgG, O.D.492

Binder	binding [1]	binding [2]
rat anti-ALK2 monoclonal antibody A2-11E (antibody, V domains shown) VH: EVQLVETGGGLVQPGRSLKLSCVASGFTFSNYYMYWIRQAPGKGLEWISSINTDGGSTYYPDSVKGRFAISRDNAENTVYLQMNSLRSEDTATYYCAKSTPNIPLAYWGQGTLVTVSS VL: DIQMTQSPSLLSASVGDRVTLSCKASQNIYKYLNWFQQKLGEAPKLLIYYSNSLQTGIPSRFSGSGSGTDFTLTISSLQPEDVAIYFCFQYSSGPTFGPGTKLELKR	no binding	no binding
rat anti-ALK2 monoclonal antibody A2-27D (antibody, V domains shown) VH: EVQLVESGGGLVQPGRSLKLSCLASGSTFSNYGMKWIRQAPGKGLEWVASISRSSTYIYYADTVKGRFTISRDNARNTLYLQMTSLRSEDTALYYCAAAISTPFYWYFDFWGPGTVVTVSS VL: EIVLTQSPTTMAASPGEKVTLNCLASSSVSYMTWYQQKSGASPKLWIYGTSNLASGVPNRFSGSGSGTSYSLAISSMEAEDVATYYCLHLTSYPPYTFGAGTKLELKR	no binding	no binding

Further lines, results first:

binding [1]	binding [2]	Binder
no binding	no binding	rat anti-ALK2 monoclonal antibody A2-25C (antibody, V domains shown) VH: EVQLVESGGGLVQPGGSLKLSCAASGFTFSYYAMSWVCQAPTKGLEWVASISRGGDNTYYRDTVKGRFTTSRDNAKNTLYLQMDSLRSEDTATYYCARLNYNNYFDYWGQGVMVTVSS VL: DIQMTQSPASLSASLEEIVTITCQASQDIGNWLSWYQQKPGKSPQLLIYGATSLADGVPSRFSGSRSGTQYSLKISRLRVEDIGIYYCLQAYSAPFTFGSGTKLEIKR
no binding	no binding	rat anti-ALK2 monoclonal antibody A2-15A (antibody, V domains shown) VH: EVQLVESGGGLVQPGRSLKLSCAASGFTFSHYYMAWVRQAPTKGLEWVASITNSGGSINYRDSVKGRFTISRDNAKSTLYLQMDSLRSEDTATYYCTREGGENYGGYPPFAYWGQGTLVTVSS VL: DIVLTQSPALAVSLGQRATISCRANQGVSLSRYNLMHWYQQKPGQKPKLLIYRSSNLASGIPARFSGSGSGTDFTLTINPVQADDIATYYCQQSRESPFTFGAGTKLELKR

Source: patent publication US20220041738A1
